These are yes or no findings as the source states them, for the method shown. Some results given as binding are weak or reduced against the parent protein; the word gives no strength.
What was measured:
[1] = biological target: T1, VARP-ANK1 (ANK1-domain of VARP) (UniProt Q96NW4); assay: SEC; analytical SEC (aSEC), Rab32 loaded with GppNHp (90%); analysis as for the GDP state (50 μM each, 1 h at 15°C), 280 nm, peaks deconvolved; both purified
T1 sequence: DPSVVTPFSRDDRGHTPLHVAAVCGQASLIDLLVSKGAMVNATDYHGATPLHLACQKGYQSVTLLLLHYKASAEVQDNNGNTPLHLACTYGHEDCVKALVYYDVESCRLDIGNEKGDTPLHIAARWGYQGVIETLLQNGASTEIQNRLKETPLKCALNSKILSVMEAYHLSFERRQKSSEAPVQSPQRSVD

[2] = biological target: T1, VARP-ANK1 (ANK1-domain of VARP); assay: SEC; analytical SEC (aSEC), Rab32 loaded with GDP (98%); 50 μM Rab32 equilibrated with 50 μM VARP-ANK1 for 1 h at 15°C, 50 μL separated, 280 nm, peaks deconvolved; single proteins run as reference; both purified

Molecule: Rab32_(cleaved) (Rab32 cleaved by GtgE between G59 and V60) (from UniProt Q13637 1-59; Q13637 60-225) (complex)
- binding [1]: no binding (tested: 50 μM each)
- binding [2]: no binding (tested: 50 μM each)

B1: Rab32 (uncleaved, non-modified) (protein, UniProt Q13637 1-225)
chain: MAGGGAGDPGLGAAAAPAPETREHLFKVLVIGELGVGKTSIIKRYVHQLFSQHYRATIGVDFALKVLNWDSRTLVRLQLWDIAGQERFGNMTRVYYKEAVGAFVVFDISRSSTFEAVLKWKSDLDSKVHLPNGSPIPAVLLANKCDQNKDSSQSPSQVDQFCKEHGFAGWFETSAKDNINIEEAARFLVEKILVNHQSFPNEENDVDKIKLDQETLRAENKSQCC
- binding [1]: binds
- binding [2]: no binding (condition: Rab32 loaded with GDP (50 μM each))

Reference: publication PMC7779776
